Common to all, as to test: co-IP
The target of assay [1] is SARS-CoV-2 N protein truncation N^174–419, 3XFlag tag (pCDNA3.1) (SARS-CoV-2) (UniProt P0DTC9).
In assay [2] the target is MAVS, 3XFlag tag (pCDNA3.1) (UniProt Q7Z434).
The target of assay [3] is SARS-CoV-2 N protein truncation N^255–419, 3XFlag tag (pCDNA3.1) (SARS-CoV-2) (UniProt P0DTC9).
Assay [4] has as its target SARS-CoV-2 N protein truncation N^364–419, 3XFlag tag (pCDNA3.1) (SARS-CoV-2) (UniProt P0DTC9).
Assay [5] concerns the target HCoV-HKU1 N protein, HIS6 tag (pET28a) (HCoV-HKU1) (UniProt Q5MQC6).
The target of assay [6] is HCoV-OC43 N protein, HIS6 tag (pET28a) (HCoV-OC43) (UniProt P33469).

Results are given in words; binding and its absence hold for the method and conditions named. Binding seen in cells or lysates may run through a third protein. Some binding calls cover weakened binding; strength is not graded here.

On to “human SUMO-conjugating E2 enzyme UBC9, GFP tag (pEGFP-N1) (from UniProt P63279 1-158)”, for which the binding result in assay [1] is on record as “no binding”; in assay [2], “binds”; in assay [3], “no binding”; in assay [4] it was “no binding”.

In the case of “UBC9, GST tag (pGEX-6P-1) (from UniProt P63279 1-158) (enzyme)”, the binding entry in assay [5] and in assay [6] was “binds” in each case.
